# Experimental data reported in patent publication US5795561A, “Radioiodinated phospholipid ether analogues” (The Board of Regents of the University of Michigan, priority 1994, dated 1998).
# For at least one compound, name, drawing or mass did not settle the structure.
# Tested on: cellular membranes
# Assay: Cellular uptake studies
# Format: cell-based
smiles,measurement,value
"C[N+](C)(C)CCOP(=O)([O-])OCCCCCCCCCCCCc1cccc(I)c1 [compound 50, 12-(m-iodophenyl)-dodecyl phosphocholine]",specificity for the cellular membranes,confirmed the specificity for the cellular membranes
